Results published in article PMC7427332, “Tuning Transcription Factor Availability through Acetylation-Mediated Genomic Redistribution”.
For some of these results: The comparison behind a weaker result is the experiment's own reference, which may not be listed here. For some of these results: For at least one entry, the source does not settle the construct or the ends of the probe. For some of these results: At least one verdict was read from the data and is not stated in words by the source. For some of these results: The direction of at least one scale is not stated here.

The chains behind the UniProt entries cited, without tags or fusion partners. Residues count along the entry.
UniProt Q08874, 287-403: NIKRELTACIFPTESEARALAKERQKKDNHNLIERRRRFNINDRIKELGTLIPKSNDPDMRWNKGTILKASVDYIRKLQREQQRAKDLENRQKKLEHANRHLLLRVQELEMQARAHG
UniProt Q08874, 287-403 K350R: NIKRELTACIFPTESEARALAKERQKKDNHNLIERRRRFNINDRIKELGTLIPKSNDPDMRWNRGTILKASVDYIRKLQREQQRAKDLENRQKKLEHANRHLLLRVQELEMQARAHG
UniProt Q08874, 287-403 K350Q: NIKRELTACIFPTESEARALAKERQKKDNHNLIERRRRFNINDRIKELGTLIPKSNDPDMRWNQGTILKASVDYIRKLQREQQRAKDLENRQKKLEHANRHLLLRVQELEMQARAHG

Assays:
[1] = target: MITF DNA-binding domain WT (bHLH-LZ) (UniProt Q08874); experiment: EMSA; details: EMSA: 25 mM HEPES pH 7.4, 150 mM KCl, 10% glycerol, 200 ug/ml BSA, 5 uM DTT, 20 min, 6% native gel; recombinant protein; residues 287-403; protein details: His (Ni-NTA purified, pETM-11 vector); label: 32P (alpha-32P-dCTP, both ends)
[2] = target: MITF DNA-binding domain K243R K350R (UniProt Q08874); experiment: EMSA; details: EMSA: 25 mM HEPES pH 7.4, 150 mM KCl, 10% glycerol, 200 ug/ml BSA, 5 uM DTT, 20 min, 6% native gel; recombinant protein; residues 287-403; protein details: His (Ni-NTA purified, pETM-11 vector); label: 32P (alpha-32P-dCTP, both ends)
[3] = target: MITF DNA-binding domain K243Q K350Q (UniProt Q08874); experiment: EMSA; details: ~256-fold more salmon sperm DNA needed to compete than for WT/K243R; EMSA: 25 mM HEPES pH 7.4, 150 mM KCl, 10% glycerol, 200 ug/ml BSA, 5 uM DTT, 20 min, 6% native gel; recombinant protein; residues 287-403; protein details: His (Ni-NTA purified, pETM-11 vector); label: 32P (alpha-32P-dCTP, both ends)
[4] = target: MITF DNA-binding domain WT (bHLH-LZ) (UniProt Q08874); experiment: fluorescence anisotropy; details: FA: 10 mM Tris/HCl pH 7.5, 300 mM NaCl, 0.01% Triton X-100, 0.1 mg/mL BSA, 1.33 nM DNA, 25 C, 5 min; recombinant protein; residues 287-403; protein details: His (Ni-NTA purified, pETM-11 vector); label: 3'-fluorescein on strand 1
[5] = target: MITF DNA-binding domain K243R K350R (UniProt Q08874); experiment: fluorescence anisotropy; details: FA: 10 mM Tris/HCl pH 7.5, 300 mM NaCl, 0.01% Triton X-100, 0.1 mg/mL BSA, 1.33 nM DNA, 25 C, 5 min; recombinant protein; residues 287-403; protein details: His (Ni-NTA purified, pETM-11 vector); label: 3'-fluorescein on strand 1; scale: fold lower affinity than WT protein on same site
[6] = target: MITF DNA-binding domain K243Q K350Q (UniProt Q08874); experiment: fluorescence anisotropy; details: FA: 10 mM Tris/HCl pH 7.5, 300 mM NaCl, 0.01% Triton X-100, 0.1 mg/mL BSA, 1.33 nM DNA, 25 C, 5 min; recombinant protein; residues 287-403; protein details: His (Ni-NTA purified, pETM-11 vector); label: 3'-fluorescein on strand 1

| Sequence | binding result [1] | binding result [2] | binding result [3] | binding result [4] | binding signal [5] | binding result [6] |
| --- | --- | --- | --- | --- | --- | --- |
| CTAGACTTGTGGAGATCACGTGATGACTTCCTGATTCCT (double strand) [TCACGTGA EMSA probe] | binds | binds | binds |  |  |  |
| GAGATCACGACTTGAC (double strand) [HS (half-site, mutated CLEAR box) FA probe] |  |  |  | binds more weakly | 4 | binds more weakly |
| GAGACCACGTGTTGAC (double strand) [E-box FA probe] |  |  |  | binds |  |  |
